Reference: publication PMC7819943, “Rice protein-binding microarrays: a tool to detect cis-acting elements near promoter regions in rice”
The list shows a part of the results.

The sequences below were run against T1, OsSMF1 (Oryza sativa, UniProt Q6ZLB0 1-436) (assay: protein-binding microarray (RPBM); PBS, 2% BSA, 51.3 ng/ul salmon testes DNA, 50 uM zinc acetate, 200 nM TF, 25 C, 1 h; high values mean tight binding). Conditions: protein: recombinant; tags: N-terminal polyhistidine and DsRed monomer fusion (pET32a); chain copies: 2; label: CyDye5-dUTP incorporated in the synthesized complementary strand; 3' TTTTT single-stranded linker to array surface; dsDNA, one strand shown.
T1 sequence: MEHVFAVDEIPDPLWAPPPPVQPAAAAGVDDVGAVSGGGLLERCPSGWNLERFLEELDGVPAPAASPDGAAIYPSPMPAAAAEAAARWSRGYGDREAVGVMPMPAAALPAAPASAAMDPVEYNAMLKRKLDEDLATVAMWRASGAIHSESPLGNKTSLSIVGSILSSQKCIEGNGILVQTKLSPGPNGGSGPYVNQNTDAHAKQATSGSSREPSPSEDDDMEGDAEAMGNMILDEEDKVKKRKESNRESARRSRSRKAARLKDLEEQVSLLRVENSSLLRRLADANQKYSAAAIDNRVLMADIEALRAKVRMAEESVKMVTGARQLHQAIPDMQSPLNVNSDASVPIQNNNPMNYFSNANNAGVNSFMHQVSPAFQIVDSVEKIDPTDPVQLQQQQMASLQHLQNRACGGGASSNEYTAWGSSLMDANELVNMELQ
How it was run: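 An Axon 4000B scanner gave the binding signal as per-feature fluorescence intensity in arbitrary units. This followed washing of a custom Agilent array that had been incubated for 1 h at 25 °C with 200 nM protein in PBS, 2% BSA, salmon testes DNA and 50 µM zinc acetate. The proteins were transcription factors fused at the N-terminus to polyhistidine and DsRed, expressed in E. coli BL21-CodonPlus and purified on Ni–NTA.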

Sequence	binding signal
GCCGCGCGCCGCATCACATACACGGGCCACGGCCTCACGGCGGAGTCACCTAGTGCAG	38900 fluorescence intensity (a.u.)
AGAGAGAGAGAGGAAAAGGGAGAAGCCAAGGAGTTGTTGGCGGAGTCACCTAGTGCAG	3370 fluorescence intensity (a.u.)
AGCGTGTAAAGTTTTGGCGTGTCACATCGGATGTACGGACCGGAGTCACCTAGTGCAG	3830 fluorescence intensity (a.u.)
CCAAGTTCGGCTGGTCGCCACGCCACCCATCTCCATCTTCCGGAGTCACCTAGTGCAG	4140 fluorescence intensity (a.u.)
CTAGACGCCGGCGACGACGAGGGTGGTTGGGTTGTGGATACGGAGTCACCTAGTGCAG	3740 fluorescence intensity (a.u.)
GTGTGTGACGCGTGTCACCACACGTTCTCTATCGCCCCTCCGGAGTCACCTAGTGCAG	8870 fluorescence intensity (a.u.)
GAGTCTGACGAAGCCGTTCGCCAACAGCAGATGCCTATTGCGGAGTCACCTAGTGCAG	3280 fluorescence intensity (a.u.)
TTCACTCGAGGAGGCGGCGGAGGCAGTCCACGTCAGCAACCGGAGTCACCTAGTGCAG	39000 fluorescence intensity (a.u.)
GATTGAGATGACTTTCTTGTGATGACCCGCTAATTTCAGACGGAGTCACCTAGTGCAG	3300 fluorescence intensity (a.u.)
TAGCAAGAGACCTTGTTGAGCATGTCATCAATGTCAAGTGCGGAGTCACCTAGTGCAG	4150 fluorescence intensity (a.u.)
ATGCCCGCACCGCACTATCCCCACGTGACGACGACGATACCGGAGTCACCTAGTGCAG	3560 fluorescence intensity (a.u.)
ATACTAGCAATCTCATTTATCCCGCCACGTAGGTAAAATTCGGAGTCACCTAGTGCAG	7760 fluorescence intensity (a.u.)
CGTCATGGGAGTCGGGGTTGGGTCGCCACCGCTCTAGATCCGGAGTCACCTAGTGCAG	3440 fluorescence intensity (a.u.)
TCTCGGCGACAGACGTGCGCCGCACGATCTAAGTCAGTGGCGGAGTCACCTAGTGCAG	3500 fluorescence intensity (a.u.)
TCCCGCCAAATCACCGATCCGCGCCTCACGCCACGTCAACCGGAGTCACCTAGTGCAG	16000 fluorescence intensity (a.u.)
AAGTAAACTACATCCCTGTGGCCCTTTGTGGCTGCATCATCGGAGTCACCTAGTGCAG	27800 fluorescence intensity (a.u.)
GTTCGATCTGAGTCTGAATCATGAGCTTATGCCTGATTGACGGAGTCACCTAGTGCAG	4290 fluorescence intensity (a.u.)
ACCACCGCCGCCGCCGCCGCCGCGTATGGGCTCGCCGGCGCGGAGTCACCTAGTGCAG	3210 fluorescence intensity (a.u.)
ACTTAACACCCCATCTTCTACCCACCTCTCTCACTCCAGCCGGAGTCACCTAGTGCAG	15500 fluorescence intensity (a.u.)
TTGTTTCTGTTTCAGGTATGAGGTCATCATTCTCCAGTATCGGAGTCACCTAGTGCAG	5810 fluorescence intensity (a.u.)
TGCGGATAGACTTCCACAACTGCCATGTCACCGCGATGTTCGGAGTCACCTAGTGCAG	11200 fluorescence intensity (a.u.)
ATAACTCGGGTCGGACTCGGACCTCAGGCCCACGTATTCCCGGAGTCACCTAGTGCAG	3220 fluorescence intensity (a.u.)
CTCCCGGAGCTCGGCCGCCTCTTCACCTCCGACACCCGCGCGGAGTCACCTAGTGCAG	3460 fluorescence intensity (a.u.)
AAGGTGTGCCCCAACCTACTTTTACATCCACATTGTAACACGGAGTCACCTAGTGCAG	6820 fluorescence intensity (a.u.)
TGCATACGTGTAGCTTCAAGTTCACTGCACATCACCTTCTCGGAGTCACCTAGTGCAG	4430 fluorescence intensity (a.u.)
AAATAGTCACACATAAAATACTATTCATATTTTATCATCTCGGAGTCACCTAGTGCAG	13500 fluorescence intensity (a.u.)
CCACCAATTTTCGAATTTAGTGTCATCAGTGATTTGTCGCCGGAGTCACCTAGTGCAG	3350 fluorescence intensity (a.u.)

Reprinted at random: 2 records from the list, in no set order.
Sequence	binding signal
TTGTTTCTGTTTCAGGTATGAGGTCATCATTCTCCAGTATCGGAGTCACCTAGTGCAG	5810 fluorescence intensity (a.u.)
ATACTAGCAATCTCATTTATCCCGCCACGTAGGTAAAATTCGGAGTCACCTAGTGCAG	7760 fluorescence intensity (a.u.)

The list goes on.

Sequence	binding signal
ACTGAGACAATCTGGAGTGTACGTTGCTTCATCCAATGGTCGGAGTCACCTAGTGCAG	26600 fluorescence intensity (a.u.)
TCATCATCAAGACTGAGTCACTGACACGTGTGCACCTATGCGGAGTCACCTAGTGCAG	27900 fluorescence intensity (a.u.)
TGCAAATTTTCAAAATCGACTACCAGTAGATGTTTACTCCCGGAGTCACCTAGTGCAG	14000 fluorescence intensity (a.u.)
TGGCAATGATGAACGGCTACTGATATACTCCCTCATATTTCGGAGTCACCTAGTGCAG	24300 fluorescence intensity (a.u.)
TTTAACTATGAGAATATATAGTACGTGTTGAGACATGAAACGGAGTCACCTAGTGCAG	27800 fluorescence intensity (a.u.)
GGCTACCCCAAATATTGTACTGGTGTGGTTATGGTGAATACGGAGTCACCTAGTGCAG	23600 fluorescence intensity (a.u.)
GTGGGAGGCGGTGGTGGTGGTGAAGGAGGTGGCCTTGGAGCGGAGTCACCTAGTGCAG	4290 fluorescence intensity (a.u.)
GGAGGTAGGTGCGGGAGATTTGCTCAGCGCAAAGAGATGACGGAGTCACCTAGTGCAG	3790 fluorescence intensity (a.u.)
ATATCTAGATGGAGCATATAAATGCACTATGGCGAAAACTCGGAGTCACCTAGTGCAG	3220 fluorescence intensity (a.u.)
GAAAACTCTAAAGCTTCATCATGGGTGCAGACACTCTGCCCGGAGTCACCTAGTGCAG	3150 fluorescence intensity (a.u.)
TCCGTCCTCGAGCTCGCCCGCGTGGCGATGCCCTCCCCTACGGAGTCACCTAGTGCAG	3280 fluorescence intensity (a.u.)
GAGCAAGTGTTGACATTGGTTTTGTCGTTGCTTCCCTTCTCGGAGTCACCTAGTGCAG	4350 fluorescence intensity (a.u.)
TTAACTCGGTCTTCATCCTGTGTGACGCCTACGATACAACCGGAGTCACCTAGTGCAG	4380 fluorescence intensity (a.u.)
AATCGGTGAATGTATTGATTGGATTTGCGTGTTCATTGTTCGGAGTCACCTAGTGCAG	12500 fluorescence intensity (a.u.)
AGGCGGTCCTTGGAGGACCGTGTCCACGCGTGACCAGCGCCGGAGTCACCTAGTGCAG	4220 fluorescence intensity (a.u.)
CACTCCCCTCGCACTCTCGACTCATTCCAATCCACATCGTCGGAGTCACCTAGTGCAG	3350 fluorescence intensity (a.u.)
TGGGAGGGGAATTTTCGTGAGCAAACCGGGGATTTCTTCGCGGAGTCACCTAGTGCAG	3240 fluorescence intensity (a.u.)
AATAGTACGTTACCATCCTCCATATCATCGCTGACGCTTCCGGAGTCACCTAGTGCAG	3540 fluorescence intensity (a.u.)
GGTCATTCTTTGCTAAAGAGAAATGATCACTATGAGTCAGCGGAGTCACCTAGTGCAG	4910 fluorescence intensity (a.u.)
ATATGTTTTACCCTGCCTCTATAAATATGGGTCATAGGAGCGGAGTCACCTAGTGCAG	3360 fluorescence intensity (a.u.)
AGCTTTTGTACCATCGGGGCAAAGCAGTGGTCTCATACAACGGAGTCACCTAGTGCAG	5490 fluorescence intensity (a.u.)
TTGTTAACTGCTGATGTGTGACCTGACTGTTAAAAGCTGCCGGAGTCACCTAGTGCAG	9170 fluorescence intensity (a.u.)
TTAAACACTCACATAGAAACTTGGTTTCCATCAGCAATGTCGGAGTCACCTAGTGCAG	25000 fluorescence intensity (a.u.)
ACCCCTCTCCACACTCCTGTCGCTGACGCTGCTGCTCCCGCGGAGTCACCTAGTGCAG	3770 fluorescence intensity (a.u.)
TCCTGTCCCTCGTGTTTGTGTCACGTTCGATTCTCCCAAGCGGAGTCACCTAGTGCAG	3420 fluorescence intensity (a.u.)
AATAAATGAGGGAGTTGCTCATCCAAGTTGCTGAATCAAACGGAGTCACCTAGTGCAG	30100 fluorescence intensity (a.u.)
AGATGCACTCATAGCATGACACATCAGTGTTAGTAAGAATCGGAGTCACCTAGTGCAG	3890 fluorescence intensity (a.u.)

Taken from the entries so far for reference:
Sequence	binding signal
GAAAACTCTAAAGCTTCATCATGGGTGCAGACACTCTGCCCGGAGTCACCTAGTGCAG	3150 fluorescence intensity (a.u.)
TCCGTCCTCGAGCTCGCCCGCGTGGCGATGCCCTCCCCTACGGAGTCACCTAGTGCAG	3280 fluorescence intensity (a.u.)
